Source: article PMC10800023 (Human Molecular Genetics, 2023)

Test system: P-gp (MDR1)
Assay: MDR1-MDCK permeability / P-gp efflux assay
Details: MDCK-MDR1, pH 7.4
Description: To measure transport by P-gp, Madin-Darby canine kidney (MDCK) cells that had been transfected with the human P-gp (MDR1) gene were plated in a Transwell plate and cultured until polarized. MDCK cells that are not transfected with human P-gp were used as a control. Compounds were added to either the apical or the basolateral side of the cells, and transport across the membrane was measured.
Testing for permeability and MDR1 substrate assessment was done in MDCK cells transfected to overexpress human MDR1 gene that encodes efflux transporter protein (P-gp). […] Briefly, cells were maintained in Dulbecco’s modified Eagle medium (DMEM) with 10% fetal bovine serum and 1% penicillin/streptomycin in a humidified incubator at 37°C with 5% CO2. The study was performed by Absorption Systems (now Pharmaron; Exton, PA). The MDR1-MDCK and MDCK control cell lines were seeded into 12-well plates for 7 days. Integrity of monolayer tight junctions was monitored preincubation by transepithelial electrical resistance (TEER) measurement. […] Compound levels were measured by LC/MS–MS. […] Papp values were calculated considering compound concentrations across the monolayer and cell surface area. Efflux ratios were calculated based on Papp B > A over Papp A > B. The difference between the MDR1-MDCK and the MDCK cell efflux ratios was also calculated. […]

Papp at 60 min: 0.0464 to 0.0873 ×10⁻⁶ cm/s
Compound: CC(C)NCC(O)COc1ccc(CC(N)=O)cc1 (stereo not shown) [atenolol]
